System: HEK293T/16 cells
Assay: Western blot of Caspase-9 variants in transfected HEK293T/16 cells
Format: cell-based, human

B1: N405Q: chimeric modified Caspase-9 polypeptide, SEQ ID NO: 26 (protein)
chain: GFGDVGALESLRGNADLAYILSMEPCGHCLIINNVNFCRESGLRTRTGSNIDCEKLRRRFSSLHFMVEVKGDLTAKKMVLALLELARQDHGALDCCVVVILSHGCQASHLQFPGAVYGTDGCPVSVEKIVNIFNGTSCPSLGGKPKLFFIQACGGEQKDHGFEVASTSPEDESPGSNPEPDATPFQEGLRTFDQLDAISSLPTPSDIFVSYSTFPGFVSWRDPKSGSWYVETLDDIFEQWAHSEDLQSLLLRVANAVSVKGIYKQMPGCFQFLRKKLFFKTS
B1 was tested, and the protein expression level was “appeared darker than the others”.

Reference: US20220152100A1, “METHODS FOR CONTROLLED ACTIVATION OR ELIMINATION OF THERAPEUTIC CELLS” (Bellicum Pharmaceuticals, Inc., priority 2014, published 2022)
